This note sets out measurements from publication PMC4632291.

Amino acid sequences for entries named in this document (tags omitted). A change or cut given only in a name is not applied to a line headed by its entry.
UniProt P50591: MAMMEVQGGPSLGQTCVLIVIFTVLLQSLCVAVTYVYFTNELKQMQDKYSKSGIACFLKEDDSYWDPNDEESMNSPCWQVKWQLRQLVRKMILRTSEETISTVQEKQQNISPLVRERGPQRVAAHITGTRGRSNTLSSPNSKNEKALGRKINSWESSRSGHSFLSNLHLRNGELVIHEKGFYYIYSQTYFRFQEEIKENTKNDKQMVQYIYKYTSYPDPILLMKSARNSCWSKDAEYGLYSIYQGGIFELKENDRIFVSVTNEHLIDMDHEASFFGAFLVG
UniProt Q14790: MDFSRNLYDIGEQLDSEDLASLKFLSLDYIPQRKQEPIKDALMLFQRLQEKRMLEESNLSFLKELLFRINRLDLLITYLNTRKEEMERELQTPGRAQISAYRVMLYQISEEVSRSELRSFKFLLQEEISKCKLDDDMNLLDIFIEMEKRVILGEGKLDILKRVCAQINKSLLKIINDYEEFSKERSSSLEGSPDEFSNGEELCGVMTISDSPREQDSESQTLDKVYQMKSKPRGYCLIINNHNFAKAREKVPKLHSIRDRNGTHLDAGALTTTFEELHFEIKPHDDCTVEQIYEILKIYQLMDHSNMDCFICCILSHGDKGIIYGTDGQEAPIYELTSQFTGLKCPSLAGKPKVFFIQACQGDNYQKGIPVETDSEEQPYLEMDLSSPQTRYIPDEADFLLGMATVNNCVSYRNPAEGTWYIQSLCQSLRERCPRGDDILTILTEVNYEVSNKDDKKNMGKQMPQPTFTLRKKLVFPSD

Results are given in words; binding and its absence hold for the method and conditions named. In cells and extracts the contact can be indirect. A result given as binding can be weak or reduced; the word gives no strength.

The target in this assay is FLAG-tagged TRAIL (tumor necrosis factor-related apoptosis inducing ligand) (human) (UniProt P50591). As to the kind of experiment: co-IP; DISC immunoprecipitation: U251MG cells (control-AdV or Notch1sh-AdV, 72 h) incubated with FLAG-tagged TRAIL (500 ng/ml) for the indicated times, washed, lysed (20 mM Tris-HCl pH 7.4, 150 nM NaCl, 0.2% Nonidet P40, 10% glycerol); precipitated overnight with anti-FLAG M2 agarose beads; blots probed for DR5 and Caspase-8; only the target purified.

As for “Caspase-8 (from UniProt Q14790 1-479) (enzyme)”, the binding entry is given as “binds”.
